Laboratory results: patent US20250188090A1, “A METHOD FOR EXTRACTION OF ALKALOID” (priority 2022, published 2025)
Converted amounts (≈) assume the structure as drawn.

Experiment: physchem
Details: pH 9, aqueous buffer

With `CN1CC[C@]23c4c5ccc(O)c4O[C@H]2[C@@H](O)C=C[C@H]3[C@H]1C5` [morphine] the solubility was 208 µg/mL (≈ 729 µM).
